Measurements published in PubChem BioAssay AID1508600 (Functional Genomics Laboratory (NCATS/FGL), 2020).
Hit rate of the full screen: of about 53,000 sequences, about 3,700 (7%) were called active.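 Rule for the calls: active = gene knockdowns whose robust z-score for IL-1 alpha signal is at least 2 or at most -2, so actives lie on both sides; inactive = the rest.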 Some of the results follow.

Assay: Components of the Cytosolic LPS Sensing Pathway: Gene Identification via Genome-wide siRNA Screen;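 note: robust z of the log signal after scaling to non-targeting control siRNA wells of the plate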
Details: RAW264.7 macrophages, IL-1a HTRF, actives lie on both sides, screened at 100 nM (by protocol), cells primed 5 h with Pam3CSK4 first
Method in brief: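 Mouse macrophage line RAW264.7 is transfected with siRNA (100 nM final), grown 48h, primed with TLR ligand Pam3CSK4 5 h and given intracellular LipidA 24 h. IL-1a in supernatant is read by HTRF and viability by luminescence.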
In the case of GCUACGUUUUUUACCUCCATT against Bak1, the z-score is reported as inactive: 0.0106.
With GCAACCCUUUAAUGAAAAATT against Jazf1 the z-score was inactive: 0.379.
For CCAGUACGAUUUCUCUCGATT against Camsap3, the z-score was inactive: -1.35.
In the case of GCAUCAGCUCACCUUUGUATT against Clec4a1, the z-score is reported as inactive: 0.547.
For GCACCCUUGAGAAAUCCAATT against Cfdp1, the z-score was inactive: -0.224.
In the case of GGAAGUUAGUUUCGUUUUATT against Rprd1b, the z-score is reported as active: 2.03.
For GGUUCUGUGUAUGGAUUAUTT against Fzd5, the z-score was inactive: -0.208.
With GCCUAUGUAAAUAGUGCUGTT against Mt3 the z-score was inactive: 0.549.
For GUCAGUGGGCUUCUCAGAUTT against Pxmp2, the z-score was inactive: 0.494.
For GGUUAACAUCACUCUGUCUTT against Ntng1, the z-score was inactive: -1.02.
In the case of GCGAGUGGACCUGUUUUACTT against Btc, the z-score is reported as inactive: 1.6.
With GGCUGCUAACAAAGACAACTT against Ift172 the z-score was inactive: -0.0877.
In the case of GGCUAUCACACAGCAUAGATT against Rdh7, the z-score is reported as inactive: 1.57.
For GCCUUAGGUUGAUAGGAGGTT against Tas2r110, the z-score was inactive: -0.191.
For GGCGAACGGUACUUAGACUTT against Etnppl, the z-score was inactive: 0.648.
With GGAGGAAUACGUAUACUUCTT against Dipk1c the z-score was active: 2.16.
With GGAAAACUUAUACUCAGAATT against Vmn1r181 the z-score was inactive: -0.197.
With GGUACAACUUUGUGACUUATT against Ercc8 the z-score was inactive: 1.04.
In the case of CCACGGUCUCUUAUUUAUGTT against Pim3, the z-score is reported as inactive: 0.535.
With CCUACACAACCGUGUUCAATT against Gtf3a the z-score was inactive: -0.603.
For GCUCGCCUGCAUUUCAUCATT against Pank4, the z-score was active: 3.3.
With GGUUUAUUGACCAUCUAAUTT against Ttc4 the z-score was inactive: -0.0452.
With CGUUUUUGUCUAGUUUGAATT against Macrod2 the z-score was inactive: -1.08.
In the case of GCAUGCGACUCUGUUCUCGTT against Gtf2a2, the z-score is reported as inactive: -0.228.
With GCCGCACAUGAACAGAACCTT against Phykpl the z-score was inactive: 0.297.
For CCGCAAAGUGAGCAAGGUGTT against Id1, the z-score was inactive: -0.63.
For GGGCAAAAUAUGAAAUACATT against Pate6, the z-score was active: 2.92.
With GGUCACAAUGGUUUAAGGATT against Tacr1 the z-score was inactive: -0.943.
For GGAGGCACACCUGAAACAUTT against Cacna2d3, the z-score was inactive: -1.19.
With GGGUGUUUGGUUGUGAUCUTT against Arhgap33 the z-score was active: -2.07.
With GGCUUUCAAGAGCAAUCCCTT against Man2b2 the z-score was active: -2.21.
In the case of GGACAAGGUAUUUUACGUCTT against Mars1, the z-score is reported as inactive: -0.151.
With GGAUUCAUGAUUAUCUUUCTT against Olfr790 the z-score was inactive: -0.138.
In the case of GGCUCGAGUUCAACCUAAUTT against Arih2, the z-score is reported as inactive: 0.436.
With CGGGAAUACGCUACGAACATT against Hoxa13 the z-score was inactive: 0.321.
In the case of GGCAGAAUCCAGCUCAGUUTT against Retreg2, the z-score is reported as inactive: -0.0202.
With GGCUUCUACUGAAGAAUCCTT against Gdf9 the z-score was inactive: -0.218.
In the case of GCUGCACGGAAACAUGUUUTT against Sirt6, the z-score is reported as inactive: 1.03.
For “CCUCUUUUUCUCCUAUUUUTT against Olfr1165-ps”, the z-score was inactive: -0.941.
For GGAGUUCAAAGACCCUCUGTT against Tmem97, the z-score was inactive: -0.758.
For GGUGCUGACUGAGAAGGAGTT against Fdps, the z-score was inactive: -1.18.
For CCGGCUAAUACUGUUGUGGTT against Snrnp40, the z-score was inactive: -1.99.
For GGGCAAGAUGGUCAGUAGATT against Tpt1, the z-score was inactive: 0.627.
For GGCCGUUCCAAAAGAGACATT against Slc22a20, the z-score was inactive: -1.03.
For GGAAGAAGAGAAGUUACAGTT against Spata24, the z-score was inactive: -0.506.
In the case of GGUUACAUUGCUCUCGUGCTT against Vmn1r66, the z-score is reported as inactive: -0.255.
In the case of GCCGUUUUAUGUGGCAGAATT against Slc35d3, the z-score is reported as inactive: 0.141.
In the case of GGAUUUCUGUGGAGAUGGGTT against Cchcr1, the z-score is reported as inactive: 0.444.
In the case of GGAAAGUGUGUUCAUUAGUTT against Pla2g2d, the z-score is reported as inactive: -0.268.
In the case of GGAGAGGUGUAAUGUAUUCTT against Gdpd4, the z-score is reported as inactive: -1.89.
With GGCCAUGGAAGCUGUUGCUTT against Pgam2 the z-score was inactive: -0.264.
With CCACUGUCCCUAAGGUACUTT against Olfr161 the z-score was inactive: -0.292.
In the case of “GGAAACAUGGCAUCAAGACTT against 1110059G10Rik”, the z-score is reported as inactive: 0.0576.
In the case of GCCGCUUAGUUCUGUUUUATT against Clcn5, the z-score is reported as inactive: 0.273.
For GCAGAUGCAAUUAUUACCCTT against Kcnmb1, the z-score was inactive: -0.792.
In the case of “GCUAUAGGCUUAAUGAAAATT against 4931406B18Rik”, the z-score is reported as inactive: -0.325.
With GGUUGGUCAGACAAGGAUCTT against Cd99l2 the z-score was inactive: -0.913.
In the case of GGGAGUUCUUGACCAAAUGTT against Katna1, the z-score is reported as inactive: 1.82.
With GGUUAAGACCUUAAACAGATT against Prl4a1 the z-score was inactive: 0.0572.
For CCUCAGUUAUAGAUGAUCUTT against Rdh11, the z-score was inactive: 0.319.
With “GGAAAACCCUAGCACCAUGTT against A430093F15Rik” the z-score was inactive: -0.414.
For GGGAAGAGUGGUGCAAUGATT against Olfr155, the z-score was inactive: 0.835.
In the case of GGCUUUGGUCAAGGAGAAGTT against Pias4, the z-score is reported as inactive: -1.32.
With GGGAAACACCUGGGUGCUUTT against Ctrl the z-score was inactive: -1.07.
For GCGGAUCUCCCUAAGAAUUTT against Ctsz, the z-score was inactive: 0.921.
With GUAAAAGGAGAUGAAGACATT against Sly the z-score was inactive: -0.686.
In the case of CCAGGGUAUGUAAAUAUCUTT against Epha8, the z-score is reported as inactive: -1.47.
In the case of GCACAAUUGGAAUUGUACATT against Ubqln2, the z-score is reported as active: -2.18.
For GGUCCACAAUGGCAUCAUATT against Elf4, the z-score was active: 2.13.
With CCGAUCACUUUAUCUUCACTT against Lrrc42 the z-score was inactive: -0.0141.
In the case of GGCUCGGUAUCGUUUUUCATT against Arl3, the z-score is reported as inactive: 0.841.
For GCAUGACGGUGUUAACUACTT against Jam3, the z-score was inactive: 0.433.
In the case of GGAUGGUAGGAUGUAGAUCTT against Tafa1, the z-score is reported as inactive: -0.819.
For GGCACAGAGAACAAUACUUTT against Npy5r, the z-score was inactive: -0.128.
For GGAAUUUGCUGAAUUGCUCTT against Ophn1, the z-score was inactive: 1.34.
For CCCUUUCAACCAUUAAGCUTT against Kcns2, the z-score was inactive: 0.243.
For GGAAGAAGAUCAAGGAGAUTT against Myof, the z-score was inactive: -0.654.
For CCAUCAUAUCAGACCCUGGTT against Olfr733, the z-score was inactive: -0.222.
With GGCCAUUUCUUUCAUAGAUTT against Dusp6 the z-score was inactive: 0.509.
For CCAACUCGGAUCAACUUAUTT against Nfia, the z-score was inactive: 1.36.
In the case of GGGAUCAACAUGAUAUUUUTT against Lrit1, the z-score is reported as inactive: -0.903.
In the case of GCAAUGGCAUCAACCAUUCTT against Cbfa2t2, the z-score is reported as inactive: 0.713.
With GGAGACGUGGGAAAAGCUATT against Gucy1b2 the z-score was inactive: -1.93.
With GGUGAGACAUUUCAAGAAATT against Ndufb2 the z-score was inactive: 0.649.
For GGCUUAUCGAUCGACAGUUTT against Nup155, the z-score was inactive: 0.442.
In the case of CCUAUCUCGGUCAUUGGCATT against Slc25a37, the z-score is reported as inactive: -1.43.
For GGCCUCUUAUAUAGAAUAATT against Polr3f, the z-score was inactive: -0.753.
For GGAUCAUUUCCUAGGACUGTT against Cox15, the z-score was inactive: -1.94.
With GGAAGCUUCAAGCCAUGGUTT against Creb3 the z-score was inactive: -0.919.
For GUAAAUAAAUCUGGUGGCATT against Rps25, the z-score was inactive: -0.92.
For GAAAGUGAAACCAUUGCUGTT against Defb37, the z-score was inactive: 0.927.
With CGUCUAGGAUGUGAAGUUUTT against Rbp4 the z-score was inactive: 1.97.
In the case of GCUAUGAACUUGUAGGAAATT against Iqcf4, the z-score is reported as inactive: -0.56.
With GGUAGUGGAGACAGAGAAGTT against Rasgrf1 the z-score was inactive: -0.527.
With GCGAGUAGGACCAGUGAAATT against Xpo1 the z-score was active: -2.67.
In the case of CGACAAACACCGUAGCAAATT against Mrtfb, the z-score is reported as inactive: -0.00947.
With GGACACAUGGAUGGAAUGUTT against Cd5l the z-score was inactive: 0.429.
In the case of GGGAAUUUCCUGAAAUCCUTT against Mettl8, the z-score is reported as inactive: -0.167.
With CCGUCUUCAAGACAGAUGCTT against Mzt2 the z-score was inactive: -0.239.
For GGACCUUUUUAUCCAACGCTT against Mcts2, the z-score was inactive: 0.46.
With GGUAAUGCUGUGGAGUCUUTT against Wdr53 the z-score was active: -2.59.
With CCACGCUAACUGGAAAGAATT against Dusp19 the z-score was inactive: 0.558.
With GUGCAGAAGCUGAUGCACCTT against Pou3f1 the z-score was inactive: -0.0458.
In the case of GGUUUAUAGCUUUUUGGUCTT against Tiam1, the z-score is reported as inactive: 1.58.
In the case of GGACUACCUGUGAAGCAAUTT against Mtfmt, the z-score is reported as inactive: -1.67.
For GGAGAAGGCAAAGAAAGGATT against Foxa3, the z-score was inactive: 0.127.
In the case of GGAUGAGCUUUAAAAUAGATT against Mc1r, the z-score is reported as inactive: 0.375.
